Assay results as given in PubChem BioAssay AID540275 (National Center for Advancing Translational Sciences (NCATS), 2011).
Hit rate of the full screen: of about 320,000 compounds, about 620 (0.19%) were called active. The shares of active, inactive and inconclusive entries below differ from those in the screen. No stated cut-off is given here; in the data, active means activation above about 80%; inconclusive means between about 30% and that limit; inactive means weaker than that.

Amino acid sequences for entries named in this document (tags omitted).
UniProt Q8NER1, whole entry, looked up: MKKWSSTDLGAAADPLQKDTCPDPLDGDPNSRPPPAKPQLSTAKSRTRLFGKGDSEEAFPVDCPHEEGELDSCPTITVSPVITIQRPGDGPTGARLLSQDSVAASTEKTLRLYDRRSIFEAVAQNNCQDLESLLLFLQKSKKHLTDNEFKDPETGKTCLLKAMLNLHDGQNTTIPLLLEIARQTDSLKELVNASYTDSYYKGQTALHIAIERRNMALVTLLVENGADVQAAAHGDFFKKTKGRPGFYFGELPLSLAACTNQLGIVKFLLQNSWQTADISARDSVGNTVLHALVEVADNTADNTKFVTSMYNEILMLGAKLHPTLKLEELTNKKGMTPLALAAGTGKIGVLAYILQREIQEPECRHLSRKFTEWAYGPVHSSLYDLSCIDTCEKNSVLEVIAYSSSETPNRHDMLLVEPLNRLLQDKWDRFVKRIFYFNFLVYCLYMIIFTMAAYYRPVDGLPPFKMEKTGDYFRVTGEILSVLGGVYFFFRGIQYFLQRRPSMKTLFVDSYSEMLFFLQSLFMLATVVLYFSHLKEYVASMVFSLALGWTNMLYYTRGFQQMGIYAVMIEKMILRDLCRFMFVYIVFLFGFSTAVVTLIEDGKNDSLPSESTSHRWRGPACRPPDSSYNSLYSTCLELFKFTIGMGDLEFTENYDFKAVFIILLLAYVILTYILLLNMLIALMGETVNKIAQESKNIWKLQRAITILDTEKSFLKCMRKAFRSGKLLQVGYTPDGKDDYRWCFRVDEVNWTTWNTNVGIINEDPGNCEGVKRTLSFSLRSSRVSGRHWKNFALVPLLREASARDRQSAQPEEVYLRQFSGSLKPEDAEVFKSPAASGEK

Biological target: Transient receptor potential cation channel subfamily V member 1 (Homo sapiens) (UniProt Q8NER1)
Assay: HTS Assay for Compounds that Act as Agonists of the Vanilloid Receptor 1; further: 0% is about no effect
Settings: TRPV1-expressing cells, Fluo-8 calcium influx, agonist mode; at 8.33 µM, stronger effect = higher value
How it was run: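 TRPV1-expressing cells were cultured overnight at 35.5C and loaded with Fluo-8 calcium dye for 40 to 90 min at room temperature. After a 10 s baseline, compound was added and calcium influx was read kinetically for 3 min (ex 480/em 520 nm).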

| Structure (SMILES) | activation |
| --- | --- |
| c1ccc(CNc2nc(-c3ccccc3)nc3ccccc23)cc1 | inactive: -2.1% |
| Cc1ccc(C(=O)Nc2nc(C(C)(C)C)cs2)s1 | inconclusive: 59.1% |
| O=C(OC1CCCCC1)c1ccc(NC(=O)C2CCCCC2)cc1 | inconclusive: 49.2% |
| Cc1ccccc1CNC(=O)C(=O)NCCC1CCCCN1S(=O)(=O)c1cccs1 (configuration not stated) | inconclusive: 30.6% |
| Cc1cc(/C=C(\C#N)C(=O)NCC2CCCO2)c(C)n1-c1ccc(Cl)cc1 (configuration not stated) | inconclusive: 47% |
| Cc1nc2ccccn2c(=O)c1CCN1CCC(C(=O)c2ccc(F)cc2)CC1 | inactive: -1.93% |
| CCCCCC(=O)Nc1ccc2ccccc2c1 | inconclusive: 49.4% |
| Cc1ccc(C(=O)Nc2ccc3c(c2)OCO3)cc1Cl | inconclusive: 62.3% |
| COc1ccccc1C/C(N)=N/OC(=O)c1cccs1 | inactive: 0.973% |
| CC(C)C(=O)Nc1ccc(C(=O)Nc2ccc(S(=O)(=O)N3CCOCC3)cc2)cc1 | inactive: 3.94% |
| CCc1nc2ccccc2c(C(=O)OCC(=O)Nc2ccc(S(=O)(=O)N3CCOCC3)cc2)c1C | inactive: 19.7% |
| COC(=O)c1ccc(C(=O)OC)c(NC(=O)COC(=O)CC2CC3CCC2C3)c1 (configuration not stated) | inconclusive: 57.7% |
| COc1ccc(-c2csc(NC(=O)Cc3ccccc3F)n2)c(OC)c1 | inconclusive: 63.6% |
| Brc1ccc(Cn2c(-c3ccc(Br)o3)nc3ccccc32)o1 | inconclusive: 32.4% |
| CN(C)S(=O)(=O)c1ccc(C(=O)OCCc2ccccc2)cc1 | inconclusive: 32.4% |
| COc1ccc(Cc2nnc(-c3ccccc3)o2)cc1 | inconclusive: 33.9% |
| COc1ccccc1-c1cc(C(F)(F)F)nc(S(=O)(=O)CCCC(=O)Nc2cccnc2Cl)n1 | inconclusive: 35% |
| O=C(CC1C(=O)N(c2ccccc2)C(=S)N1c1ccccc1)c1ccccc1 (configuration not stated) | inconclusive: 33.7% |
| O=C(N/N=C1/CC2C=CCC12)c1ccc(Br)o1 (configuration not stated) | inconclusive: 58.7% |
| O=C(COc1ccccc1[N+](=O)[O-])Nc1ccccc1N1CCCCC1 | inconclusive: 34.5% |
| CCOc1cc(OCC)cc(C(=O)NCc2ccco2)c1 | inactive: 28.8% |
| CCOc1ccccc1N(C(=O)Cn1nnnc1-c1ccc(C)o1)C(CC)C(=O)NC(C)(C)C (configuration not stated) | inconclusive: 37% |
| S=c1[nH]nc(CCc2ccccc2)n1-c1ccc(Cl)cc1 | inactive: 3.55% |

Copied from the results shown, 16 compounds:

| Structure (SMILES) | activation |
| --- | --- |
| Cc1nc2ccccn2c(=O)c1CCN1CCC(C(=O)c2ccc(F)cc2)CC1 | inactive: -1.93% |
| CCCCCC(=O)Nc1ccc2ccccc2c1 | inconclusive: 49.4% |
| Cc1ccc(C(=O)Nc2ccc3c(c2)OCO3)cc1Cl | inconclusive: 62.3% |
| COc1ccccc1C/C(N)=N/OC(=O)c1cccs1 | inactive: 0.973% |
| CC(C)C(=O)Nc1ccc(C(=O)Nc2ccc(S(=O)(=O)N3CCOCC3)cc2)cc1 | inactive: 3.94% |
| CCc1nc2ccccc2c(C(=O)OCC(=O)Nc2ccc(S(=O)(=O)N3CCOCC3)cc2)c1C | inactive: 19.7% |
| COC(=O)c1ccc(C(=O)OC)c(NC(=O)COC(=O)CC2CC3CCC2C3)c1 (configuration not stated) | inconclusive: 57.7% |
| COc1ccc(-c2csc(NC(=O)Cc3ccccc3F)n2)c(OC)c1 | inconclusive: 63.6% |
| Brc1ccc(Cn2c(-c3ccc(Br)o3)nc3ccccc32)o1 | inconclusive: 32.4% |
| CN(C)S(=O)(=O)c1ccc(C(=O)OCCc2ccccc2)cc1 | inconclusive: 32.4% |
| COc1ccc(Cc2nnc(-c3ccccc3)o2)cc1 | inconclusive: 33.9% |
| COc1ccccc1-c1cc(C(F)(F)F)nc(S(=O)(=O)CCCC(=O)Nc2cccnc2Cl)n1 | inconclusive: 35% |
| O=C(CC1C(=O)N(c2ccccc2)C(=S)N1c1ccccc1)c1ccccc1 (configuration not stated) | inconclusive: 33.7% |
| O=C(N/N=C1/CC2C=CCC12)c1ccc(Br)o1 (configuration not stated) | inconclusive: 58.7% |
| O=C(COc1ccccc1[N+](=O)[O-])Nc1ccccc1N1CCCCC1 | inconclusive: 34.5% |
| CCOc1cc(OCC)cc(C(=O)NCc2ccco2)c1 | inactive: 28.8% |

Going on with the list:

| Structure (SMILES) | activation |
| --- | --- |
| Cc1ccc(Oc2c(C)nc(-c3ccccc3)[nH]c2=O)cc1 | inconclusive: 41.5% |
| COCCNc1nnc(SCC(=O)NNC(=O)c2ccccc2)s1 | inactive: -0.927% |
| CC1(C)N=C(SCC(=O)Nc2ccc(Cl)cc2)C(c2ccccc2)=N1 | inconclusive: 33.7% |
| O=C(OCC(=O)N1CCc2ccccc21)c1c2c(nc3ccccc13)CCCC2 | inconclusive: 36.6% |
| O=C(N/N=C/c1cccs1)C1COc2ccccc2O1 (configuration not stated) | inconclusive: 38.9% |
| COc1cc(/C=C/C(=O)OCC(=O)Nc2ccc([N+](=O)[O-])cc2)ccc1O | inactive: 23.5% |
| O=C(COC(=O)C1CCN(S(=O)(=O)c2cccs2)CC1)Nc1ccc(F)c(F)c1F | inactive: 1.94% |
| Cc1cc2c(cc1C)C(c1ccccc1F)CC(=O)N2 (configuration not stated) | inconclusive: 40.5% |
| CC1=NNC(=O)/C1=C\c1cn(-c2ccccc2)nc1-c1ccccc1 | inconclusive: 63.8% |
| COCc1cc(C)[nH]c(=O)c1C(=O)NC12CC3CC(CC(C3)C1)C2 | inactive: 8.85% |
| c1ccc2c(COn3nnc4ccccc43)cccc2c1 | inconclusive: 65.4% |
| Cc1cccc(-c2nnc(SCC(=O)N3CCOCC3)o2)c1 | inconclusive: 49.9% |
| COc1ccc(C(=O)NCCc2nnc3ccc(SCC(=O)NCc4ccccc4)nn23)cc1 | inconclusive: 70.1% |
| COc1ccc(S(=O)(=O)NCCOc2cccc3cccnc23)cc1OC | inactive: 1.71% |
| O=C(NNC(=O)c1ccc(O)cc1O)c1ccc(Cl)cc1 | inconclusive: 45.1% |
| CCc1ccc(OCCCC(=O)Nc2nnc(C3CCCO3)s2)cc1 (configuration not stated) | inactive: -1.26% |
| CC1(C)CC(=O)C2=C(C1)NC(SCC(=O)Nc1ccccc1)=C(C#N)C21CCCCC1 | inconclusive: 38.2% |
| CCCCN1C(=S)NC[C@@H]1c1ccccc1 | inactive: -2.93% |
| CC1CN(CCCOc2ccc([N+](=O)[O-])cc2)CC(C)O1 (configuration not stated) | inactive: -1.46% |
| Cc1ccc(S(=O)(=O)N2CCN(CC(=O)N/N=C/c3ccco3)CC2)cc1 | inactive: 3.37% |
| CCCNC(=O)C(Cc1ccc(F)cc1)NC(=O)c1ccccc1 (configuration not stated) | inactive: 5.31% |
| Cc1onc(-c2ccccc2)c1CNC(=O)Nc1ccc(F)cc1F | inconclusive: 51.8% |
| O=C(/C=C/c1ccco1)Nc1ccc(S(=O)(=O)N2CCOCC2)cc1 | inconclusive: 32.1% |

| Structure (SMILES) | activation |
| --- | --- |
| O=C(COC(=O)c1cc(Cl)ccc1[N+](=O)[O-])NCc1ccc(Cl)cc1Cl | inactive: -3.33% |
| O=C1CC(c2cc(F)ccc2F)c2cc3c(cc2N1)CCC3 (configuration not stated) | inconclusive: 55.7% |
| CC1CCCN(c2ccc(C(=O)NCc3ccco3)cc2[N+](=O)[O-])C1 (configuration not stated) | inconclusive: 32.1% |
| CCN/N=C(\Cc1nc2ccccc2[nH]1)c1ccccc1 | inconclusive: 48.5% |
| Nc1cc(=O)n(Cc2ccccc2)c(=O)n1-c1ccc(Cl)cc1 | inactive: 0.124% |
| CS(=O)(=O)c1ccc(C(=O)Nc2ccc(N3CCCC3)cc2)c(Cl)c1 | inconclusive: 65.5% |
| COCCNC(=O)COC(=O)c1cc(-c2ccc(OC)cc2)nc2ccccc12 | inconclusive: 31.7% |
| C=C1C[C@@]23CCC4[C@@](C)(CCC[C@@]4(C)C(=O)OC)C2CC[C@]1(OC(C)=O)C3 (some centres not stated) | inconclusive: 56.4% |
| CC(CC(=O)Nc1ccc(S(=O)(=O)Nc2ncccn2)cc1)c1ccccc1 (configuration not stated) | inactive: -0.215% |
| COCc1ccc(C(=O)N2CCCC(Nc3ccc4c(c3)OCCO4)C2)o1 (configuration not stated) | inconclusive: 46.3% |
| Cc1ccc(NC(=S)Nc2cccc3cnccc23)cc1 | inactive: 0.699% |
| COc1ccc(CN(Cc2nc3ccccc3c(=O)[nH]2)C(=O)NC2CCCCC2)cc1 | inconclusive: 32.8% |
| Fc1ccc(-c2ccc(Nc3cccc(F)c3)nn2)cc1 | inactive: -0.397% |
| CC(C)(Oc1ccc(Cl)cc1)C(=O)NCc1ccncc1 | inconclusive: 63.1% |
| COCC(=O)Nc1cc(C)cn(Cc2cccc(C(F)(F)F)c2)c1=O | inconclusive: 45.8% |
| Brc1ccc(C2=CC(c3ccco3)n3ncnc3N2)cc1 (configuration not stated) | inconclusive: 33.3% |
| Cc1ccc(NCc2ccc(O)c3ncccc23)cc1 | inactive: -5.03% |
| CCOC(=O)C1(CCCc2ccccc2)CCN(C(=O)CCc2cnn(C)c2)CC1 | inconclusive: 64% |
| CN(CC(=O)Nc1c(Cl)cccc1Cl)C(=O)c1ccc2nc[nH]c2c1 | inactive: 6.39% |
| Cc1sc(NC(=O)C2=COCCO2)nc1-c1ccc(F)cc1 | inconclusive: 50.1% |
| O=C(NCc1ccc(Cl)cc1)c1csc(-c2cccnc2)n1 | inconclusive: 31.9% |
| CCOC(=O)C1CCN(S(=O)(=O)c2cccc(-c3cn4cccnc4n3)c2)CC1 | inactive: -3.69% |
| Cc1ccc(SCC(=O)NCCCc2ccccc2)cc1 | inconclusive: 30.7% |

| Structure (SMILES) | activation |
| --- | --- |
| O=C(/C=C(O)/C=C/c1ccc(O)cc1)/C=C/c1ccc(O)cc1 | inconclusive: 60.2% |
| O=C1Nc2ccccc2C12Nc1ccccc1-c1nc3ccccc3n12 (configuration not stated) | inactive: 2.22% |
| O=C(CCc1ccccc1)NC(=S)NCc1ccco1 | inactive: 4.38% |
| CCO[C@@H]1OC(C(N)=O)=C[C@H](c2ccc3c(c2)OCO3)[C@H]1CCCO | inactive: -3.16% |
| O=C(NCc1ccc(Cl)cc1)N1CCOCC1 | inconclusive: 79.7% |
| O=C(c1ccccc1)c1coc2c1C(=O)c1ccccc1C2=O | inactive: -1.59% |
| CC(C)c1cc(C(=O)NCCc2ccccc2)no1 | inconclusive: 59.3% |
| O=C(Nc1ccc2nc(-c3cccs3)c(-c3cccs3)nc2c1)N1CCOCC1 | inconclusive: 52.1% |
| CCC(C)c1ccc(NC(=S)NC(C)C2CCCO2)cc1 (configuration not stated) | inconclusive: 53.4% |
| CC(=O)c1ccc(NC(=O)c2ccc(S(=O)(=O)N3CCCC3)cc2)cc1 | inconclusive: 60% |
| CCCC(=O)N(C1CC(C)C(C#N)(C#N)C1(C#N)C#N)N(C)C (configuration not stated) | inactive: 24.4% |
| c1ccc(-c2cc3c(N4CCOCC4)ncnc3s2)cc1 | inconclusive: 41.4% |
| O=C(NC1CCCC1)C1CC1c1ccccc1 (configuration not stated) | inconclusive: 31% |
| C/C=C/C=C/C(=O)N1CC[C@]23c4ccccc4N[C@H]4N(C)c5cccc6c5[C@]42CCN([C@H]6C2OC2(C)C)[C@H]13 (some centres not stated) | inactive: 3.17% |
| CC(C)n1c(/C=C/c2ccccc2)nc2ccccc21 | inconclusive: 39.7% |
| CC1NC(=O)NC1CCCCCC(=O)Nc1ccc(F)c(Cl)c1 (configuration not stated) | inactive: 3.06% |
| Cc1nc(CNC(=O)c2cc(COc3ccc(F)cc3Cl)on2)cs1 | inconclusive: 53.4% |
| CC1CCCC(NC(=O)c2ccc3c(c2)OCCO3)C1C (configuration not stated) | inconclusive: 33.2% |
| CCn1c(=O)n(CC)c2cc(S(N)(=O)=O)c(C)cc21 | inactive: 3.32% |
| CCN(CC(=O)NCc1ccc(F)cc1)CC(=O)Nc1ccccc1-c1ccccc1 | inconclusive: 43.2% |
| CCC(=O)OCc1c(C(F)(F)F)nn(C)c1Sc1ccc(F)cc1 | inactive: 13.5% |
| CCC(C(=O)NCCC1=CCCCC1)c1ccccc1 (configuration not stated) | inconclusive: 31.4% |
| Cc1ccc(S(=O)(=O)Oc2ccc(C3C4=C(CCCC4=O)N(CCC(=O)O)C4=C3C(=O)CCC4)cc2Cl)cc1 | inactive: -0.3% |
